Assay [1] deals with endogenous SNF2H (human (endogenous in HeLa)) (UniProt O60264). The assay can be described thus: co-IP; lysates from ultraviolet-irradiated or non-irradiated HeLa cells immunoprecipitated with anti-SNF2H antibody; western blotting; endogenous proteins.
For a further assay, the target named is HA-DDB2 (UniProt Q92466). The assay can be described thus: co-IP; ChIP-western blot: HA-DDB2-transfected shCtl cells, mock or 40 J m^-2 ultraviolet, collected after 20 min; formaldehyde cross-linked, sonicated chromatin immunoprecipitated with anti-HA antibody, de-crosslinked, western blotting. In general terms: In western blotting, separated proteins are transferred to a membrane and probed.

Sequences of proteins named here, by UniProt entry; tags and fusion partners are left off.
UniProt O60264: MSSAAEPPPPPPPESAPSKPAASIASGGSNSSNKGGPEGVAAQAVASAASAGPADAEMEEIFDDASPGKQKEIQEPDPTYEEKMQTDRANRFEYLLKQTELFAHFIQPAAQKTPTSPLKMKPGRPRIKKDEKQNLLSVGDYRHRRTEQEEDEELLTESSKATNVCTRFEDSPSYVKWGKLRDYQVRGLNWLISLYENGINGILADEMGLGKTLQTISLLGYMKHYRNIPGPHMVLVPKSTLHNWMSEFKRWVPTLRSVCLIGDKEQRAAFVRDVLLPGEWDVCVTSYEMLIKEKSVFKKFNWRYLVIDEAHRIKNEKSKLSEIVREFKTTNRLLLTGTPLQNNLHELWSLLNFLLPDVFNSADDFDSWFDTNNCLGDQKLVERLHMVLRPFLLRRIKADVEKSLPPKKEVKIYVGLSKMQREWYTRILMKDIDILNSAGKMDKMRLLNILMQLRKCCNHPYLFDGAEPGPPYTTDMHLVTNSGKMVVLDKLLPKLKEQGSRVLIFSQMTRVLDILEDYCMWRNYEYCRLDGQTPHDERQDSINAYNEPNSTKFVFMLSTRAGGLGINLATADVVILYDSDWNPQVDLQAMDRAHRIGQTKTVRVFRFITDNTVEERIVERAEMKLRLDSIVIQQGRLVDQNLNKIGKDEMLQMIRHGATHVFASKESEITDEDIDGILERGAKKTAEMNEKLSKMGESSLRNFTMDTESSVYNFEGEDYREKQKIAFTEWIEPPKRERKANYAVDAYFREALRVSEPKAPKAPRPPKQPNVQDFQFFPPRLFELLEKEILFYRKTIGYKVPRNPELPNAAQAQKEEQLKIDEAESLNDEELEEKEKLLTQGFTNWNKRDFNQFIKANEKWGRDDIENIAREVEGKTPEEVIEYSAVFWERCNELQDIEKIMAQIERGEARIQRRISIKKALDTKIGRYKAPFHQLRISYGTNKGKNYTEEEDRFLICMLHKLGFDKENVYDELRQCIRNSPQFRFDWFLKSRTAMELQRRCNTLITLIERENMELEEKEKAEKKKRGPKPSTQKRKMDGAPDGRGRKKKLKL
UniProt Q92466: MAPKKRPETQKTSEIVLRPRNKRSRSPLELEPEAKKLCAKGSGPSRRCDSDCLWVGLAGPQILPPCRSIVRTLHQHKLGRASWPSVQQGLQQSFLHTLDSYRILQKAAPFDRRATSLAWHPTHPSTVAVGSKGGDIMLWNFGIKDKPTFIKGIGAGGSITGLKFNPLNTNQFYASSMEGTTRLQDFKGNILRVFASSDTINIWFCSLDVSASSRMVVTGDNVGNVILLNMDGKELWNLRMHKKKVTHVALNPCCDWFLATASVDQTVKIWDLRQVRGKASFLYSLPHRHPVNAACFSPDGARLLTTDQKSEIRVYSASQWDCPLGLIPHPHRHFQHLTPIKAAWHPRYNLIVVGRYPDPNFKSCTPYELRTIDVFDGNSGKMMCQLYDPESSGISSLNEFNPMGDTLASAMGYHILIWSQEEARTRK
UniProt O95251: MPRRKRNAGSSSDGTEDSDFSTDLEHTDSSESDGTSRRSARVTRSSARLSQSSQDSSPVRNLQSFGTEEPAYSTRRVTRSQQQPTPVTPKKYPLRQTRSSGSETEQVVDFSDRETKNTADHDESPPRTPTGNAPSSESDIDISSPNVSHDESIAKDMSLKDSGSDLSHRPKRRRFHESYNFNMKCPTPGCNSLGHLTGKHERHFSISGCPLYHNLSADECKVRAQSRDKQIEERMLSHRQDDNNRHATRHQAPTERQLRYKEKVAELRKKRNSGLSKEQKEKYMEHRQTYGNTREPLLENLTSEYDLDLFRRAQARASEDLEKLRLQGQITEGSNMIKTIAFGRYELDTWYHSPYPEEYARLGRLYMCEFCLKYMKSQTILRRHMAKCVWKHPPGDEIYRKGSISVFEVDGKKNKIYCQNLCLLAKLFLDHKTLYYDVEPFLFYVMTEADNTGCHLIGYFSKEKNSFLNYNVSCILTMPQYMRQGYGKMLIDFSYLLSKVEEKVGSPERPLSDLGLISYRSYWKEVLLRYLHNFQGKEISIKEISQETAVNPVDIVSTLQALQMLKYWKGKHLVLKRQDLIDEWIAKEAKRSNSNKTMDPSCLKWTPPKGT

In another assay the target is GFP-SNF2H (human) (UniProt O60264). The assay can be described thus: co-IP; HEK293 cells overexpressing GFP-SNF2H and HA-DDB2 or Myc-HBO1; immunoprecipitated with anti-HA antibody, anti-Myc antibody and anti-GFP agarose; western blotting.

3 substances from publication PMC5520108 can be followed below.

No constants are given. Whether binding was seen depends on the method and setting. In cells and extracts the contact can be indirect. Some binding calls cover weakened binding; strength is not graded here.

Consider “endogenous HBO1 (from UniProt O95251 1-611)”, for which the binding entry (in assay [1]; in the assay with HA-DDB2) was “binds” in each case.

Consider HA-DDB2 (from UniProt Q92466 1-427), for which the binding result with GFP-SNF2H (human) is “no binding”.

Myc-HBO1 (from UniProt O95251 1-611): the binding result in the assay with GFP-SNF2H (human) was “binds weakly”.
